In article PMC3617097:
Results are given in words; binding and its absence hold for the method and conditions named. In cells and extracts the contact can be indirect. Some entries that bind do so weakly or less than the wild type.

Biological target: T1, SNAP23 (human (endogenous in H69)) (UniProt O00161)
T1 sequence: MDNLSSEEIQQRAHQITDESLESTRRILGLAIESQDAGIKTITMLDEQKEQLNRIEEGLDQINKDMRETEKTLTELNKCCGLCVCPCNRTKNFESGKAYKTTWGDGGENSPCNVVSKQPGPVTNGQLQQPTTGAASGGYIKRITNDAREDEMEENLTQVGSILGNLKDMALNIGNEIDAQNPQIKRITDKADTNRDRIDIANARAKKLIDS
Assay: co-IP; H69 cells, non-infected or exposed to C. parvum for 24 h; interaction of SNAP23 and IKK2 measured by IP; which protein was precipitated is not told in the shown text (details in Text S1)

B1: IKK2 (enzyme, UniProt O14920 1-756)
chain: MSWSPSLTTQTCGAWEMKERLGTGGFGNVIRWHNQETGEQIAIKQCRQELSPRNRERWCLEIQIMRRLTHPNVVAARDVPEGMQNLAPNDLPLLAMEYCQGGDLRKYLNQFENCCGLREGAILTLLSDIASALRYLHENRIIHRDLKPENIVLQQGEQRLIHKIIDLGYAKELDQGSLCTSFVGTLQYLAPELLEQQKYTVTVDYWSFGTLAFECITGFRPFLPNWQPVQWHSKVRQKSEVDIVVSEDLNGTVKFSSSLPYPNNLNSVLAERLEKWLQLMLMWHPRQRGTDPTYGPNGCFKALDDILNLKLVHILNMVTGTIHTYPVTEDESLQSLKARIQQDTGIPEEDQELLQEAGLALIPDKPATQCISDGKLNEGHTLDMDLVFLFDNSKITYETQISPRPQPESVSCILQEPKRNLAFFQLRKVWGQVWHSIQTLKEDCNRLQQGQRAAMMNLLRNNSCLSKMKNSMASMSQQLKAKLDFFKTSIQIDLEKYSEQTEFGITSDKLLLAWREMEQAVELCGRENEVKLLVERMMALQTDIVDLQRSPMGRKQGGTLDDLEEQARELYRRLREKPRDQRTEGDSQEMVRLLLQAIQSFEKKVRVIYTQLSKTVVCKQKALELLPKVEEVVSLMNEDEKTVVRLQEKRQKELWNLLKIACSKVRGPVSGSPDSMNASRLSQPGQLMSQPSTASNSLPEPAKKSEELVAEAHNLCTLLENAIQDTVREQDQSFTALDWSWLQTEEEEHSCLEQAS
- binding: binds
